PubChem BioAssay AID1259425 – University of Nebraska Medical Center, 2018
The deposit covers about 14,000 reagents; this is a random part of them. Not all columns of the deposit are shown. No sequences are given here. The record does not give: the time to read-out.

Test: 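Seek colon cancer weak points whose silencing resembles KSR1 loss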 (primary screen)
Cells: HCT116 human colon cancer cells
Knock-down reagent: siRNA pool against human genes, 50 nM siRNA
Measured: 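After 50 nM siRNA pool, branched-DNA assay measures six marker transcripts per well, minus blank, normalised to the geometric mean of two housekeeping transcripts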
Scale: BNIP3L mRNA: higher = more BNIP3L transcript after knockdown; NDRG1 mRNA: higher = more NDRG1 transcript after knockdown

TMEM143 — BNIP3L mRNA, set 1: 0.143; NDRG1 mRNA, set 1: 0.526
MIPOL1 — BNIP3L mRNA, set 1: 0.0605; NDRG1 mRNA, set 1: 0.0894
CHI3L2 — BNIP3L mRNA, set 1: 0.0821; NDRG1 mRNA, set 1: 0.097
NDRG1 — BNIP3L mRNA, set 1: 0.0787; NDRG1 mRNA, set 1: 0.0896
NGDN — BNIP3L mRNA, set 1: 0.159; NDRG1 mRNA, set 1: 0.443
TAL2 — BNIP3L mRNA, set 1: 0.086; NDRG1 mRNA, set 1: 0.0387
DCAF12 — BNIP3L mRNA, set 1: 0.128; NDRG1 mRNA, set 1: 0.174
OVOL1 — BNIP3L mRNA, set 1: 0.0804; NDRG1 mRNA, set 1: 0.366
NONO — BNIP3L mRNA, set 1: 0.202; NDRG1 mRNA, set 1: 0.2
ZNF385B — BNIP3L mRNA, set 1: 0.117; NDRG1 mRNA, set 1: 0.14
PGGT1B — BNIP3L mRNA, set 1: 0.0707; NDRG1 mRNA, set 1: 0.276
SLC16A3 — BNIP3L mRNA, set 1: 0.0824; NDRG1 mRNA, set 1: 0.449
OXT — BNIP3L mRNA, set 1: 0.0727; NDRG1 mRNA, set 1: 0.16
ACKR5 — BNIP3L mRNA, set 1: 0.282; NDRG1 mRNA, set 1: 0.532
HIPK2 — BNIP3L mRNA, set 1: 0.107; NDRG1 mRNA, set 1: 0.233
VTI1B — BNIP3L mRNA, set 1: 0.0415; NDRG1 mRNA, set 1: 0.881
USP4 — BNIP3L mRNA, set 1: 0.0488; NDRG1 mRNA, set 1: 0.107
POMGNT1 — BNIP3L mRNA, set 1: 0.0723; NDRG1 mRNA, set 1: 0.218
WASHC5 — BNIP3L mRNA, set 1: 0.103; NDRG1 mRNA, set 1: 0.17
MCOLN3 — BNIP3L mRNA, set 1: 0.0884; NDRG1 mRNA, set 1: 0.115
RAD51AP1 — BNIP3L mRNA, set 1: 0.0509; NDRG1 mRNA, set 1: 0.345
PQBP1 — BNIP3L mRNA, set 1: 0.134; NDRG1 mRNA, set 1: 0.131
ANG — BNIP3L mRNA, set 1: 0.16; NDRG1 mRNA, set 1: 0.161
CTDSP2 — BNIP3L mRNA, set 1: 0.127; NDRG1 mRNA, set 1: 0.216
PLD1 — BNIP3L mRNA, set 1: 0.0831; NDRG1 mRNA, set 1: 0.192
FRMD8 — BNIP3L mRNA, set 1: 0.291; NDRG1 mRNA, set 1: 0.288
ECHS1 — BNIP3L mRNA, set 1: 0.149; NDRG1 mRNA, set 1: 0.163
TST — BNIP3L mRNA, set 1: 0.18; NDRG1 mRNA, set 1: 0.15
